Consider 64 compounds from PubChem BioAssay AID493014 (National Center for Advancing Translational Sciences (NCATS), 2011).

A word on the AC50: it is the concentration giving half of the maximal activity seen.

The list shows a part of the results. The main result of the screen is listed elsewhere. These columns were measured beside it and carry no call. Most of these compounds were active or inconclusive in the main read-out, so they are no random draw. Potencies come from curve fits of mixed quality, noted in brackets.

The nature of this assay: qHTS Assay to Find Inhibitors of Chronic Active B-Cell Receptor Signaling. As to conditions: ABC-DLBCL IkBa-CBG/CBR reporter, luminescence ratio (green luciferase fused to IkBa over red control in TMD8 lymphoma cells), 4 h. The essentials: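 Concentration-response series (up to 46 uM) were applied to TMD8 dual-reporter cells for 4 h at 37C with doxycycline. Green/red ratio, after filter-overlap correction, defined %Activity; red signal alone was normalised to basal cells and zero luminescence.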
On the technique in general: In qHTS, concentration-response curves come from the screen itself.

Setting [1] is: measured here: CBR red luminescence, cell number.
[2] abbreviates: measured here: IkBa-CBG green luminescence.

As for `CN(CC(=O)Nc1ccc(F)cc1)C(=O)COC(=O)CNC(=O)c1sc2ccccc2c1Cl`, the concentration at half-maximal activity (AC50) under setting [1] is 4.61 µM [falling, full curve].

Take `CC(=O)c1csc(COc2cc(Cl)cc(Cl)c2)n1`: the concentration at half-maximal activity (AC50) under setting [1] is 0.0891 µM [rising, full curve, poor fit].

Consider `Cc1cc(C(=O)NCc2ccco2)sc1C`, for which the concentration at half-maximal activity (AC50) under setting [1] was 0.0731 µM [falling, full curve, poor fit].

For `CCOC(=O)N1CCC(c2cc(=O)n3[nH]c(-c4ccccc4)cc3n2)CC1`, the AC50 under setting [1] is 5.8 µM [falling, full curve].

As to `Cc1noc(C)c1COc1ccc(C(=O)N2CCN(S(=O)(=O)c3ccccc3)CC2)cc1`, the AC50 under setting [1] is 1.16 µM [falling, partial curve, poor fit].

Turning to `O=C(Nc1cccc(C(F)(F)F)c1)C(=O)N1CCCCC1`, under setting [1], the half-maximal activity concentration (AC50) is 2.82 µM [rising, partial curve].

For the compound `COC(=O)c1cc(C#N)c(SCc2ccccc2)nc1C`, under setting [1], the AC50 is 7.31 µM [rising, partial curve, poor fit].

For `CCC(O)(CC)C(=O)NN(C(=O)CCl)c1ccccc1`, the AC50 under setting [1] is 29.1 µM [falling, single point].

Consider `CCCCc1cc(=O)oc2cc(C)cc(OCC(=O)Nc3cccnc3)c12`, for which the half-maximal activity concentration (AC50) under setting [1] was 31.6 µM [rising, single point].

`O=C(OCC(=O)N1CCc2ccccc21)c1c2c(nc3ccccc13)CCCC2`: under setting [1], the AC50 is 7.31 µM [falling, partial curve, poor fit].

`O=C(O)c1cc(Cl)ccc1OS(=O)(=O)c1ccc(Cl)s1`: under setting [1], the AC50 was 29.1 µM [falling, single point].

Consider `O=C(N/N=C/c1cccs1)C1COc2ccccc2O1` (configuration not stated), for which, under setting [1], the AC50 was 6.51 µM [falling, single point].

For `NC(=O)C1(N2CCCCC2)CCN(C(=O)CSc2nc(C(F)(F)F)cc(=O)[nH]2)CC1`, the AC50 under setting [1] is 0.092 µM [rising, full curve, poor fit].

As for `O=c1c(Cl)c(N2CCCCC2)cnn1-c1nc2ccccc2[nH]1`, the half-maximal activity concentration (AC50) under setting [1] is 1.26 µM [falling, full curve].

On to `O=[N+]([O-])c1cccc(/C=N/N2CCN(c3ccccn3)CC2)c1`, for which the half-maximal activity concentration (AC50) under setting [1] is 9.2 µM [rising, partial curve, poor fit].

As for `Nc1nc(NCc2ccco2)nn1-c1ccccc1`, the concentration at half-maximal activity (AC50) under setting [1] was 35.5 µM [falling, single point].

For `CCCSc1cc(N2CCN(C)CC2)nc(-c2ccc(OC)cc2)n1`, the half-maximal activity concentration (AC50) under setting [1] was 0.58 µM [falling, full curve, poor fit].

As for `O=C(c1ccc(Cn2c(=O)[nH]c3ccsc3c2=O)cc1)N1CCN(c2ccccc2)CC1`, the AC50 under setting [1] is 1.12 µM [rising, partial curve, poor fit].

Take `CC1=NNC(=O)/C1=C\c1cn(-c2ccccc2)nc1-c1ccccc1`: the half-maximal activity concentration (AC50) under setting [1] is 35.5 µM [falling, single point].

With `Cc1nn(-c2ccccc2)c(N2CCCC2)c1/C=N/NC(=O)c1ccccc1O`, the half-maximal activity concentration (AC50) under setting [1] was 20.6 µM [falling, single point].

Regarding `COc1ccc(-c2noc(CN(C(=O)c3ccc4c(c3)OCO4)C(C)C)n2)cc1`, the AC50 under setting [1] is 0.398 µM [falling, full curve, poor fit].

Consider `Cc1cccc(N2C(=O)N3[C@H]4c5ccccc5OC[C@@H]4[C@@H](c4ccccc4)[C@@]3(C)C2=O)c1`, for which the AC50 under setting [1] is 1.46 µM [falling, full curve].

With `c1ccc2c(COn3nnc4ccccc43)cccc2c1`, under setting [1], the concentration at half-maximal activity (AC50) is 0.411 µM [rising, full curve, poor fit].

For `CCCCNC(=S)NC(=O)c1ccccc1Br`, the AC50 under setting [1] was 10.3 µM [rising, partial curve].

`COc1ccc(C(=O)NCCc2nnc3ccc(SCC(=O)NCc4ccccc4)nn23)cc1`: the AC50 under setting [1] was 5.01 µM [falling, full curve, poor fit].

For the compound `O=c1cc(CN2CCN(S(=O)(=O)c3ccccc3)CC2)nc2ccc(Cl)cn12`, the AC50 under setting [1] is 20.6 µM [rising, single point].

Regarding `CCC(=O)Nc1sc2c(c1C(=O)Nc1ccccc1C)CCC(C)C2` (configuration not stated), the AC50 under setting [1] was 1.78 µM [rising, full curve, poor fit].

As to `COCCn1c(SCC(=O)Nc2ccccc2F)nc2c([nH]c3ccccc32)c1=O`, the half-maximal activity concentration (AC50) under setting [1] is 6.31 µM [falling, single point].

For the compound `CCc1ccc(OCCCC(=O)Nc2nnc(C3CCCO3)s2)cc1` (configuration not stated), under setting [1], the half-maximal activity concentration (AC50) is 5.01 µM [rising, partial curve, poor fit].

Turning to `O=C(NNC(=O)c1ccc(O)cc1O)c1ccc(Cl)cc1`, the AC50 under setting [1] was 23.1 µM [falling, single point].

For `Cc1c(NC(=O)c2ccccc2N(C)S(=O)(=O)c2ccccc2)c(=O)n(-c2ccccc2)n1C`, the concentration at half-maximal activity (AC50) under setting [1] was 4.61 µM [rising, single point].

Regarding `CC(=O)c1ccc(NC(=O)/C(=C\c2cccs2)NC(=O)c2ccco2)cc1`, the half-maximal activity concentration (AC50) is 35.5 µM [rising, single point] under setting [1] and 14.1 µM [falling, partial curve, poor fit] under setting [2].

On to `CN(C(=O)COC(=O)c1ccc2c(=O)n3c(nc2c1)CCC3)c1ccccc1`, for which, under setting [1], the AC50 is 8.2 µM [falling, partial curve, poor fit].

As to `COc1ccc(S(=O)(=O)Nc2ccc3c(c2)n(C)c(=O)n3C)cc1C`, the half-maximal activity concentration (AC50) under setting [1] was 15.8 µM [rising, partial curve, poor fit].

With `N=c1nc(-c2ccccc2)ccn1O`, under setting [1], the AC50 is 0.562 µM [falling, full curve, poor fit].

Consider `COc1ccccc1OCC(=O)NNC(=O)c1cccs1`, for which the AC50 under setting [1] is 29.1 µM [falling, single point].

As to `Cc1sc(NC(=O)C2CSC3(C)CCC(=O)N23)nc1-c1ccc(F)cc1` (configuration not stated), the AC50 under setting [1] was 15.8 µM [falling, partial curve].

In the case of `Cc1ccc(NC2CCCCC2NS(=O)(=O)c2ccc(Cl)cc2)cc1` (configuration not stated), under setting [1], the concentration at half-maximal activity (AC50) was 8.2 µM [rising, partial curve].

For the compound `O=C(CSc1ccc(Br)c2cccc(Cl)c12)Nc1ccc(S(=O)(=O)Nc2nccs2)cc1`, the AC50 under setting [1] was 35.5 µM [falling, single point].

As to `O=c1n(CCCN2CCN(c3cccc(Cl)c3)CC2)nc2ccccn12`, the AC50 under setting [1] was 6.51 µM [rising, partial curve].

As to `O=C(Cc1nc2ccccc2[nH]c1=O)c1ccc(Cl)cc1`, the AC50 under setting [1] was 0.251 µM [falling, full curve, poor fit].

Turning to `CCNC(=O)Nc1nc2ccccc2s1`, the AC50 under setting [1] is 35.5 µM [falling, single point].

For `COC(=O)c1ccc(S(=O)(=O)N2CCC(c3nc4ccccc4o3)CC2)cc1`, the AC50 under setting [1] was 29.1 µM [rising, single point].

`CSc1ccc(S(=O)(=O)NCC(=O)OCC(=O)N(Cc2ccccc2)C(C)C)cc1[N+](=O)[O-]`: the concentration at half-maximal activity (AC50) under setting [1] was 29.1 µM [falling, single point].

Regarding `COc1ccccc1-n1cnc2cc(C(=O)NCCCN3CCOCC3)ccc21`, under setting [1], the AC50 was 6.51 µM [rising, single point].

Take `CCOc1ccc(-c2noc(-c3ccncc3)n2)cc1OCC`: the AC50 under setting [1] was 0.0517 µM [rising, full curve, poor fit].

Take `COc1ccccc1CNC(=O)C(=O)NCCC1CCCCN1S(=O)(=O)c1cccs1` (configuration not stated): under setting [1], the concentration at half-maximal activity (AC50) was 29.1 µM [falling, single point].

With `COc1ccc(/C(O)=C2/C(=O)C(=O)N(Cc3cccnc3)C2c2ccccn2)cc1` (configuration not stated), under setting [1], the AC50 is 18.4 µM [rising, partial curve].

As to `Cc1ccc(S(=O)OCC(=O)Nc2cc(Cl)ccc2N2CCOCC2)cc1` (configuration not stated), the concentration at half-maximal activity (AC50) under setting [1] is 10 µM [falling, partial curve].

As for `O=C(Cc1cccs1)NCCSc1c(-c2ccc(Cl)cc2)[nH]c2ccccc12`, the half-maximal activity concentration (AC50) is 29.1 µM [falling, single point] under setting [1] and 20.6 µM [rising, single point] under setting [2].

Take `COC(=O)c1c(C(=O)OC)c(-c2ccc(C)cc2)n2c1CS(=O)C2` (configuration not stated): the concentration at half-maximal activity (AC50) under setting [1] was 2.59 µM [rising, partial curve, poor fit].

For the compound `O=C(Nn1c(Cc2cccs2)nc2ccccc2c1=O)c1cccs1`, the AC50 under setting [1] is 20 µM [falling, partial curve, poor fit].

Turning to `O=C(NN=C1CCC(c2ccccc2)CC1)c1cc2c(s1)CCCC2` (configuration not stated), the concentration at half-maximal activity (AC50) by setting is: under setting [1], 6.51 µM [falling, single point]; under setting [2], 6.51 µM [rising, partial curve, poor fit].

For the compound `O=c1nc(N2CCCCCC2)nc(N2CCCCCC2)[nH]1`, the AC50 under setting [1] is 0.355 µM [rising, full curve, poor fit].

As for `Clc1ccc(Cn2nnc(-c3ccccc3)n2)cc1`, the half-maximal activity concentration (AC50) under setting [1] was 20.6 µM [rising, single point].

With `CC(C)(C)Cc1nc(-c2ccccn2)no1`, the AC50 under setting [1] was 5.17 µM [falling, partial curve].

`COc1ccc(OC)c(S(=O)(=O)N2CCC(C(=O)NC3CCCC3)CC2)c1`: the AC50 under setting [1] was 6.31 µM [rising, single point].

With `CCOC(=O)CSc1nc2sc(C(=O)O)c(C)c2c(=O)[nH]1`, the AC50 under setting [1] is 16.4 µM [falling, partial curve].

In the case of `COc1cccc(C(=O)NCCS(=O)(=O)NCc2ccco2)c1`, the AC50 under setting [1] was 20.6 µM [falling, single point].

Turning to `COc1ccccc1NC(=O)CCC(=O)Nc1ccccc1OC`, under setting [1], the concentration at half-maximal activity (AC50) is 9.2 µM [falling, partial curve].

Consider `CC(C)(O)c1cc2ccc(C#Cc3ccsc3)cc2c(=O)o1`, for which the AC50 under setting [1] is 29.1 µM [rising, single point].

Turning to `COc1ccc(CNc2cc(NCCCO)c([N+](=O)[O-])c3nonc23)cc1`, the AC50 under setting [1] is 7.94 µM [falling, partial curve, poor fit].

Take `CCN/N=C(\Cc1nc2ccccc2[nH]1)c1ccccc1`: the AC50 under setting [1] was 12.6 µM [falling, single point].

For `CC1CCCN(c2ccc(C(=O)NCc3ccco3)cc2[N+](=O)[O-])C1` (configuration not stated), the AC50 under setting [1] was 3.26 µM [rising, full curve].
